PubChem BioAssay AID1159578 | Peter MacCallum Cancer Centre, 2015

Assay: 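Knock-downs that alter how fast lymphatic endothelial cells migrate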 (primary screen)
Cell system: human lymphatic endothelial cells
Reagents: siRNA pool against human genes, 40 nM
Duration: 48 h after transfection
Read-out: 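High-content imaging of dye-stained cells in a scratch assay measures filled wound area and nuclei per well; duplicate means given as ratio to mock and robust z-score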
Direction: migration robust z-score: higher = faster migration into the scratch; migration relative to mock: higher = more scratch area covered than mock; nuclei per well: higher = more cells in the well
Rule for the call: 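Migration changed when robust z exceeds 2 or falls below -2 and mean nuclei number is at least 3300; otherwise not called changed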
Meaning of the calls: active = migration changed; inactive = no migration change, or too few cells
The whole screen tested about 18,000 reagents; this is a random part of them. About 1,030 of them (5.7%) count as active. 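Inactive calls also include pools with fewer than 3300 nuclei, whose migration was not assessed.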 The raw values are shown without normalisation. No sequences are given here.

target gene | migration robust z-score | migration class with cell-count check | migration relative to mock | nuclei per well, duplicate mean | outcome
DNASE2 | -0.96 | migration z between -2 and 2; enough cells | 0.62 | 5051 | inactive
RNH1 | 1.02 | migration z between -2 and 2; enough cells | 1.15 | 5868 | inactive
JADE3 | -0.73 | migration z between -2 and 2; enough cells | 0.66 | 3650 | inactive
KRTAP19-6 | -1.06 | under 3300 nuclei; migration not judged | 0.61 | 2612 | inactive
GUCA2B | 0.03 | migration z between -2 and 2; enough cells | 0.81 | 7420 | inactive
PABPC3 | 1.18 | migration z between -2 and 2; enough cells | 1.19 | 6416 | inactive
CCDC54 | -0.58 | migration z between -2 and 2; enough cells | 0.73 | 6237 | inactive
C11orf52 | -0.91 | migration z between -2 and 2; enough cells | 0.65 | 3444 | inactive
PDRG1 | 1.72 | migration z between -2 and 2; enough cells | 1.34 | 4850 | inactive
CDK11A | -0.42 | migration z between -2 and 2; enough cells | 0.72 | 4266 | inactive

Ordered by “migration robust z-score” (high to low): 3 of the entries above.
target gene | migration robust z-score | migration class with cell-count check | migration relative to mock | nuclei per well, duplicate mean | outcome
RNH1 | 1.02 | migration z between -2 and 2; enough cells | 1.15 | 5868 | inactive
JADE3 | -0.73 | migration z between -2 and 2; enough cells | 0.66 | 3650 | inactive
DNASE2 | -0.96 | migration z between -2 and 2; enough cells | 0.62 | 5051 | inactive

The results go on:
target gene | migration robust z-score | migration class with cell-count check | migration relative to mock | nuclei per well, duplicate mean | outcome
IL22RA2 | 1.09 | migration z between -2 and 2; enough cells | 1.02 | 5196 | inactive
UBA7 | 0.73 | migration z between -2 and 2; enough cells | 0.94 | 6426 | inactive
LIN7A | 2.52 | migration z above 2; enough cells | 1.54 | 5484 | active
MTX3 | -0.9 | migration z between -2 and 2; enough cells | 0.64 | 6320 | inactive
UVSSA | 0.06 | migration z between -2 and 2; enough cells | 0.9 | 4800 | inactive
GOLGA3 | 0.13 | migration z between -2 and 2; enough cells | 0.92 | 5659 | inactive
NOC4L | 1.73 | migration z between -2 and 2; enough cells | 1.34 | 5378 | inactive
HPD | -1.22 | migration z between -2 and 2; enough cells | 0.57 | 5969 | inactive
FAM24A | 2.97 | migration z above 2; enough cells | 1.65 | 6636 | active
LAMTOR5 | 0.26 | migration z between -2 and 2; enough cells | 0.95 | 5377 | inactive
SPMAP2 | 0.34 | migration z between -2 and 2; enough cells | 0.98 | 5348 | inactive
GPR88 | -0.36 | migration z between -2 and 2; enough cells | 0.74 | 5174 | inactive
NPAT | 1.28 | migration z between -2 and 2; enough cells | 1.21 | 5982 | inactive
